Strings that start with PEPTIDE1 are HELM notation: dots part the residues, brackets hold end groups and non-standard residues.
Tests used:
[1] = peptide made by a vendor (peptide synthesis; TFFH (preactivation of LVFX for conjugation)); conditions: whole synthesis
[2] = general procedure: peptide synthesis; TFFH (preactivation of LVFX for conjugation); conditions: conjugation step

Substance	final purity (method not given) [1]	conjugation yield [2]
PEPTIDE1{R.G.R.R.S.S.R.R.K.K.[am]}$$$$V2.0	≥95%	–
PEPTIDE1{[LVFX].R.G.R.R.S.S.R.R.K.K.[am]}|CHEM1{[LVFX]}|CHEM2{[LVFX]}$PEPTIDE1,CHEM1,10:R3-1:R2|PEPTIDE1,CHEM2,11:R3-1:R2$$$V2.0	–	~87%
indolicidin	≥95%	–

Reference: paper PMC4166900 (Frontiers in Chemistry, 2014)
